From patent US20160010082A1
No constants are given. Whether binding was seen depends on the method and setting. Some binding calls cover weakened binding; strength is not graded here. For part of these data: Sequences can lack the tags named with a protein. Values belong to the binder of their own block, whether it stands above or below them.

Amino acid sequences for entries named in this document (tags omitted). A change or cut given only in a name is not applied to a line headed by its entry. Chains listed by the source or under a name are the forms on record and can include a tag or linker.
biotinylated vascular endothelial growth factor (P15692, form named): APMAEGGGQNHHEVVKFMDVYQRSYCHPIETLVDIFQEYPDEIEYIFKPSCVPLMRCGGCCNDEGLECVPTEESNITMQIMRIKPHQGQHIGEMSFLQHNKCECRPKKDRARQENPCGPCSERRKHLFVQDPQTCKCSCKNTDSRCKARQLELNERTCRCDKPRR

Tests used:
[1] = molecular target: streptavidin-R-phycoerythrin (UniProt P22629); experiment: flow cytometry of E. coli displaying SApep, 100 nM SA-PE; 0, 30, 60 and 90 minutes of induction
[2] = molecular target: streptavidin-R-phycoerythrin (UniProt P22629); experiment: two-colour flow cytometry, 100 nM SA-PE alone or with 40 nM YPet-Mona
[3] = molecular target: biotinylated vascular endothelial growth factor (UniProt P15692); experiment: flow cytometry of E. coli displaying the construct, 65 nM biotinylated VEGF then 10 nM SA-PE
[4] = molecular target: streptavidin-R-phycoerythrin (UniProt P22629); experiment: flow cytometry of E. coli displaying the construct, SA-PE
[5] = molecular target: streptavidin-R-phycoerythrin (UniProt P22629); experiment: flow cytometry of E. coli displaying the construct, fluorescently-conjugated streptavidin
[6] = molecular target: streptavidin-R-phycoerythrin (UniProt P22629); experiment: two-colour flow cytometry, SA-PE and YPet-mona
[7] = molecular target: streptavidin-R-phycoerythrin (UniProt P22629); experiment: two-colour flow cytometry, SA-PE and YPet-Mona

B1: CPX-L2-1 (enhanced CPX, eCPX) displaying SApep at the N-terminus (protein)
chain: GQSGQAECHPQGPPCIEGRKGGQSGQSGDYNKNQYYGITAGPAYRINDWASIYGVVGVGYGKFQTTEYPTYKHDTSDYGFSYGAGLQFNPMENVALDFSYEQSRIRSVDVGTWILSVGYRFGSKSRRATSTVTGGYAQSDAQGQMNKMGGFNLKYRYEEDNSPLGVIGSFTYTEKSRTAS
binding [1]: binds

B3: CPX displaying the VEGF binding peptide at the N-terminus (protein)
chain: GQSGQVEPNCDIHVMWEWECFERLGGQSGQSGDYNKNQYYGITAGPAYRINDWASIYGVVGVGYGKFQTTEYPTYKHDTSDYGFSYGAGLQFNPMENVALDFSYEQSRIRSVDVGTWIAGVGYRFGGSGATSTVTGGYAQSDAQGQMNKMGGFNLKYRYEEDNSPLGVIGSFTYTEKSRTAS
binding [3]: binds

B4: CPX with the streptavidin binding peptide fused to the N-terminus (pB33CPX-SApep) (protein)
chain: GQSGQAECHPQGPPCIEGRKGGQSGQSGDYNKNQYYGITAGPAYRINDWASIYGVVGVGYGKFQTTEYPTYKHDTSDYGFSYGAGLQFNPMENVALDFSYEQSRIRSVDVGTWIAGVGYRFGGSGATSTVTGGYAQSDAQGQMNKMGGFNLKYRYEEDNSPLGVIGSFTYTEKSRTAS
binding [4]: binds | binding [5]: binds | binding [1]: binds

Continued, values first:

binding [2]: binds
B2: eCPX-nSApep-cP2 (protein)
chain: GQSGQAECHPQGPPCIEGRKGGQSGQSGDYNKNQYYGITAGPAYRINDWASIYGVVGVGYGKFQTTEYPTYKHDTSDYGFSYGAGLQFNPMENVALDFSYEQSRIRSVDVGTWILSVGYRFGSKSRRATSTVTGGYAQSDAQGQMNKMGGFNLKYRYEEDNSPLGVIGSFTYTEKSRTASGGQSGQPAPSIDRSTKPPL

binding [6]: binds | binding [7]: binds | binding [2]: binds
B5: eCPX-nSApep-linker-cP2 (protein)
chain: GQSGQAECHPQGPPCIEGRKGGGSGGGSGGGSGGGSGGGSGGQSGQSGDYNKNQYYGITAGPAYRINDWASIYGVVGVGYGKFQTTEYPTYKHDTSDYGFSYGAGLQFNPMENVALDFSYEQSRIRSVDVGTWILSVGYRFGSKSRRATSTVTGGYAQSDAQGQMNKMGGFNLKYRYEEDNSPLGVIGSFTYTEKSRTASGGQSGQPAPSIDRSTKPPL
